Publication PMC8575775, “Structural basis of the interaction between SETD2 methyltransferase and hnRNP L paralogs for governing co-transcriptional splicing” (Nature Communications, 2021)
Positions count from the first letter of the chain named. Results are given in words; binding and its absence hold for the method and conditions named. In cells and extracts the contact can be indirect. Some binding calls cover weakened binding; strength is not graded here.

Assays:
Test in all cases: pull-down; Halo-tagged bait expressed in 293T cells, captured from extracts on Magne HaloTag beads (wash 300 mM NaCl), eluted with TEV protease; endogenous preys seen by western blotting and silver staining; for SETD2CΔSRI with and without RNase treatment
[1] = target: T1, Halo-SETD2C (1404–2564) (human) (UniProt Q9BYW2)
T1 sequence: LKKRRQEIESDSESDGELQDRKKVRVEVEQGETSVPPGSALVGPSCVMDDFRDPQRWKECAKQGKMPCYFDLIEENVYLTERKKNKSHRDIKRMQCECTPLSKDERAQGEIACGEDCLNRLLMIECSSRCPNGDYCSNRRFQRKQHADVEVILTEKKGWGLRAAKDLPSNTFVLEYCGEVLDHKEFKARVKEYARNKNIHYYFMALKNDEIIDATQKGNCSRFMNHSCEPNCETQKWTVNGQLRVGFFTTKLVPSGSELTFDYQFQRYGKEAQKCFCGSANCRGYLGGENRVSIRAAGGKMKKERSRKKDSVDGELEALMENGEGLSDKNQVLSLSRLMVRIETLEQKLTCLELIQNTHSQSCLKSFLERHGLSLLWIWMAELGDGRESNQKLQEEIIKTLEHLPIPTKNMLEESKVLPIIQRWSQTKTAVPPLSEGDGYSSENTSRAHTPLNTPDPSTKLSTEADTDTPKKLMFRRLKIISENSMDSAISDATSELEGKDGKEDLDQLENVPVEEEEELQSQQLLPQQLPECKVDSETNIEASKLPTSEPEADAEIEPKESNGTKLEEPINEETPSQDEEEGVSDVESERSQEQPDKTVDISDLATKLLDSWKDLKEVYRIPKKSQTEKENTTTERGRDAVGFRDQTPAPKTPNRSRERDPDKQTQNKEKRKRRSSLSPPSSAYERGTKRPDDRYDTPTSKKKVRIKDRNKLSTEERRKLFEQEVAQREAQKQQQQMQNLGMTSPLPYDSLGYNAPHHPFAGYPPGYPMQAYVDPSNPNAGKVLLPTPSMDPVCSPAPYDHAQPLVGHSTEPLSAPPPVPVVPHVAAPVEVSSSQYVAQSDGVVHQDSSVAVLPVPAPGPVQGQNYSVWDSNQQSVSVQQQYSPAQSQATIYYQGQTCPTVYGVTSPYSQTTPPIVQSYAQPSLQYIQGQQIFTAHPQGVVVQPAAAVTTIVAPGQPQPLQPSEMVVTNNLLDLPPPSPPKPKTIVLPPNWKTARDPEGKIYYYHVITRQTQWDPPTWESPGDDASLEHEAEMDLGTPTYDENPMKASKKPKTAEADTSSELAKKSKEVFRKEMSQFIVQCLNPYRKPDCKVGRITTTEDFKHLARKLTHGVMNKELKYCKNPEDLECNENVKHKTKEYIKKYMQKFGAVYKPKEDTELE

[2] = target: T2, Halo-SETD2C L2188A L2189A (human) (UniProt Q9BYW2)
T2 sequence: T1 sequence with L785A, L786A

[3] = target: T3, Halo-SETD2CΔSHI (Δ2164–2213) (human) (UniProt Q9BYW2)
T3 sequence: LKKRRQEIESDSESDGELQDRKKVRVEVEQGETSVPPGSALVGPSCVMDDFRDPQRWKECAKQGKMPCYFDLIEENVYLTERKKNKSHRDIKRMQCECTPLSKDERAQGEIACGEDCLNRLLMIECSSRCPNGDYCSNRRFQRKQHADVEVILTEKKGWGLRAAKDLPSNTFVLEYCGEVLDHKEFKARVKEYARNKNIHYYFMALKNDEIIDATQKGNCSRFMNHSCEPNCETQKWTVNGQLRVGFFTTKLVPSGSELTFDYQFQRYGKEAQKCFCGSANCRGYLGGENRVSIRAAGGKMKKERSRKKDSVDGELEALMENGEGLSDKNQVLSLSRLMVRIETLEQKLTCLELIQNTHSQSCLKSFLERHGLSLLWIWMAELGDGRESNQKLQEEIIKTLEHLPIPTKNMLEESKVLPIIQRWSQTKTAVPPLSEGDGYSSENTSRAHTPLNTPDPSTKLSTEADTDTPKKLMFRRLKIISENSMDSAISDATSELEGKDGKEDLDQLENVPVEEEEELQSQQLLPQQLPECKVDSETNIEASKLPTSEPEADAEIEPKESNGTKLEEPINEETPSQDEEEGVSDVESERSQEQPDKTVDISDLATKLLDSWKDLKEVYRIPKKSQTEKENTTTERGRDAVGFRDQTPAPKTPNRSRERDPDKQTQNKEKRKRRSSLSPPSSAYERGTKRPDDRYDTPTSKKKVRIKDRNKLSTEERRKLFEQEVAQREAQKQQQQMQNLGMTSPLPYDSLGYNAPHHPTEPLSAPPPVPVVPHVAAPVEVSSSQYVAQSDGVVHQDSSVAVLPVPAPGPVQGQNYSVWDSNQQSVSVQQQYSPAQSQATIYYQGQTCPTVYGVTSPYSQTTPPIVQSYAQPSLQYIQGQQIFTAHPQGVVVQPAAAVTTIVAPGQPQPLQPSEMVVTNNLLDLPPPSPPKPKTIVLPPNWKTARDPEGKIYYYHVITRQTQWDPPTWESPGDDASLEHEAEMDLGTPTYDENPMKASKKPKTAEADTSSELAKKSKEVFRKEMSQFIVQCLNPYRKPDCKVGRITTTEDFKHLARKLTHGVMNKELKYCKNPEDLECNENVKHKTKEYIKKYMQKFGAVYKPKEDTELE

binding [1]: binds | binding [2]: no binding | binding [3]: no binding
B1: hnRNP L (endogenous) (protein, UniProt P14866 1-589)
chain: MSRRLLPRAEKRRRRLEQRQQPDEQRRRSGAMVKMAAAGGGGGGGRYYGGGSEGGRAPKRLKTDNAGDQHGGGGGGGGGAGAAGGGGGGENYDDPHKTPASPVVHIRGLIDGVVEADLVEALQEFGPISYVVVMPKKRQALVEFEDVLGACNAVNYAADNQIYIAGHPAFVNYSTSQKISRPGDSDDSRSVNSVLLFTILNPIYSITTDVLYTICNPCGPVQRIVIFRKNGVQAMVEFDSVQSAQRAKASLNGADIYSGCCTLKIEYAKPTRLNVFKNDQDTWDYTNPNLSGQGDPGSNPNKRQRQPPLLGDHPAEYGGPHGGYHSHYHDEGYGPPPPHYEGRRMGPPVGGHRRGPSRYGPQYGHPPPPPPPPEYGPHADSPVLMVYGLDQSKMNCDRVFNVFCLYGNVEKVKFMKSKPGAAMVEMADGYAVDRAITHLNNNFMFGQKLNVCVSKQPAIMPGQSYGLEDGSCSYKDFSESRNNRFSTPEQAAKNRIQHPSNVLHFFNAPLEVTEENFFEICDELGVKRPSSVKVFSGKSERSSSGLLEWESKSDALETLGFLNHYQMKNPNGPYPYTLKLCFSTAQHAS
